Paper doi:10.1101/727479
Results are given in words; binding and its absence hold for the method and conditions named. Binding seen in cells or lysates may run through a third protein. Some results given as binding are weak or reduced against the parent protein; the word gives no strength. Values belong to the binder of their own block, whether it stands above or below them.

Sequences of proteins named here, by UniProt entry; tags and fusion partners are left off.
UniProt P23771: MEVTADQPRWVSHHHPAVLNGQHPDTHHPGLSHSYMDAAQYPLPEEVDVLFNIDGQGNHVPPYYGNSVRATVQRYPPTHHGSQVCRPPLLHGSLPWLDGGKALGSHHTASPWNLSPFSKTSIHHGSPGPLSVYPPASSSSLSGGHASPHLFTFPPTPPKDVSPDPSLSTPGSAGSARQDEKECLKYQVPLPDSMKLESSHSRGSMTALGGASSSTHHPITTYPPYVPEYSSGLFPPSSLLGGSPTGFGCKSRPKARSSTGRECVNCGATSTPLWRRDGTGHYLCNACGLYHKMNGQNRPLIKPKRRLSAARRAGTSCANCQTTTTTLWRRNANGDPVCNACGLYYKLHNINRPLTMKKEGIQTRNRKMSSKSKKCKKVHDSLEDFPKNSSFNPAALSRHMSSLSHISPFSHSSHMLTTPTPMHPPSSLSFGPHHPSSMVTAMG

Target: GATA binding protein 3 (GATA3) (human (endogenous in primary CD4+ T cells)) (UniProt P23771)
Test: co-IP

binding: binds
B1: nuclear factor erythroid 2-related factor 2 (NRF2) (protein, UniProt Q16236 1-605)
chain: MMDLELPPPGLPSQQDMDLIDILWRQDIDLGVSREVFDFSQRRKEYELEKQKKLEKERQEQLQKEQEKAFFAQLQLDEETGEFLPIQPAQHIQSETSGSANYSQVAHIPKSDALYFDDCMQLLAQTFPFVDDNEVSSATFQSLVPDIPGHIESPVFIATNQAQSPETSVAQVAPVDLDGMQQDIEQVWEELLSIPELQCLNIENDKLVETTMVPSPEAKLTEVDNYHFYSSIPSMEKEVGNCSPHFLNAFEDSFSSILSTEDPNQLTVNSLNSDATVNTDFGDEFYSAFIAEPSISNSMPSPATLSHSLSELLNGPIDVSDLSLCKAFNQNHPESTAEFNDSDSGISLNTSPSVASPEHSVESSSYGDTLLGLSDSEVEELDSAPGSVKQNGPKTPVHSSGDMVQPLSPSQGQSTHVHDAQCENTPEKELPVSPGHRKTPFTKDKHSSRLEAHLTRDELRAKALHIPFPVEKIINLPVVDFNEMMSKEQFNEAQLALIRDIRRRGKNKVAAQNCRKRKLENIVELEQDLDHLKDEKEKLLKEKGENDKSLHLLKKQLSTLYLEVFSMLRDEDGKPYSPSEYSLQQTRDGNVFLVPKSKKPDVKKN

binding: binds
B2: superoxide dismutase 3 (SOD3) (protein, UniProt P08294 19-240)
chain: WTGEDSAEPNSDSAEWIRDMYAKVTEIWQEVMQRRDDDGALHAACQVQPSATLDAAQPRVTGVVLFRQLAPRAKLDAFFALEGFPTEPNSSSRAIHVHQFGDLSQGCESTGPHYNPLAVPHPQHPGDFGNFAVRDGSLWRYRAGLAASLAGPHSIVGRAVVVHAGEDDLGRGGNQASVENGNAGRRLACCVVGVCGPGLWERQAREHSERKKRRRESECKAA
